In this assay the target is PHB2 mutant lacking the N-terminal region. In words: co-IP; deletion mapping of SHIP2 truncates and PHB2 mutants in HEK293T cells.

Results are given in words; binding and its absence hold for the method and conditions named. Binding seen in cells or lysates may run through a third protein. Binding calls can cover weak binding; strength is not graded here. Where a sequence is shown, tags or fusion partners need not be part of it.

B1: tGFP-SHIP2 (full-length SHIP2, SHIP2-FL) (protein, UniProt O15357 1-1258)
chain: MASACGAPGPGGALGSQAPSWYHRDLSRAAAEELLARAGRDGSFLVRDSESVAGAFALCVLYQKHVHTYRILPDGEDFLAVQTSQGVPVRRFQTLGELIGLYAQPNQGLVCALLLPVEGEREPDPPDDRDASDGEDEKPPLPPRSGSTSISAPTGPSSPLPAPETPTAPAAESAPNGLSTVSHDYLKGSYGLDLEAVRGGASHLPHLTRTLATSCRRLHSEVDKVLSGLEILSKVFDQQSSPMVTRLLQQQNLPQTGEQELESLVLKLSVLKDFLSGIQKKALKALQDMSSTAPPAPQPSTRKAKTIPVQAFEVKLDVTLGDLTKIGKSQKFTLSVDVEGGRLVLLRRQRDSQEDWTTFTHDRIRQLIKSQRVQNKLGVVFEKEKDRTQRKDFIFVSARKREAFCQLLQLMKNKHSKQDEPDMISVFIGTWNMGSVPPPKNVTSWFTSKGLGKTLDEVTVTIPHDIYVFGTQENSVGDREWLDLLRGGLKELTDLDYRPIAMQSLWNIKVAVLVKPEHENRISHVSTSSVKTGIANTLGNKGAVGVSFMFNGTSFGFVNCHLTSGNEKTARRNQNYLDILRLLSLGDRQLNAFDISLRFTHLFWFGDLNYRLDMDIQEILNYISRKEFEPLLRVDQLNLEREKHKVFLRFSEEEISFPPTYRYERGSRDTYAWHKQKPTGVRTNVPSWCDRILWKSYPETHIICNSYGCTDDIVTSDHSPVFGTFEVGVTSQFISKKGLSKTSDQAYIEFESIEAIVKTASRTKFFIEFYSTCLEEYKKSFENDAQSSDNINFLKVQWSSRQLPTLKPILADIEYLQDQHLLLTVKSMDGYESYGECVVALKSMIGSTAQQFLTFLSHRGEETGNIRGSMKVRVPTERLGTRERLYEWISIDKDEAGAKSKAPSVSRGSQEPRSGSRKPAFTEASCPLSRLFEEPEKPPPTGRPPAPPRAAPREEPLTPRLKPEGAPEPEGVAAPPPKNSFNNPAYYVLEGVPHQLLPPEPPSPARAPVPSATKNKVAITVPAPQLGHHRHPRVGEGSSSDEESGGTLPPPDFPPPPLPDSAIFLPPSLDPLPGPVVRGRGGAEARGPPPPKAHPRPPLPPGPSPASTFLGEVASGDDRSCSVLQMAKTLSEVDYAPAGPARSALLPGPLELQPPRGLPSDYGRPLSFPPPRIRESIQEDLAEEAPCLQGGRASGLGEAGMSAWLRAIGLERYEEGLVHNGWDDLEFLSDITEEDLEEAGVQDPAHKRLLLDTLQLSK
With B1, the binding entry is reported as “binds”.
